The target of the experiment is T1, CpxA (T25 fusion) (E. coli K-12), P0AE82.
T1 chain: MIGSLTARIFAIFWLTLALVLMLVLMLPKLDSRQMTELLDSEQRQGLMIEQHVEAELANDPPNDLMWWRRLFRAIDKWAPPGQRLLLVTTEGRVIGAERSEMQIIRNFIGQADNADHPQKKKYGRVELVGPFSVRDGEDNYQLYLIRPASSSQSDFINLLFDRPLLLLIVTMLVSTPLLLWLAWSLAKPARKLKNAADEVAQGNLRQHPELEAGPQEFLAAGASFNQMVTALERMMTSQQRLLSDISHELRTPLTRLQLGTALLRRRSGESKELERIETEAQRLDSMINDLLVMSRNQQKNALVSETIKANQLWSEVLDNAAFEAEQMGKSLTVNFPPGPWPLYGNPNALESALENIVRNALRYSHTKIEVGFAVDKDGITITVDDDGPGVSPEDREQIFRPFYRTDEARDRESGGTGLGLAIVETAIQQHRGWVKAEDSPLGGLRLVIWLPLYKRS
The experiment can be described thus: two-hybrid; BACTH for homodimerisation: T18 fusion against T25 fusion of the kinase in E. coli BTH101, 28°C, LB with 1 mM IPTG, β-galactosidase activity of stationary-phase cells. As to conditions: remark: other sources report otherwise.

These are yes or no findings as the source states them, for the method shown. Some results given as binding are weak or reduced against the parent protein; the word gives no strength. Tags and fused reporters may be left off the sequences shown.

B1: CpxA (T25 fusion), P0AE82 1-457 (protein)
chain: MIGSLTARIFAIFWLTLALVLMLVLMLPKLDSRQMTELLDSEQRQGLMIEQHVEAELANDPPNDLMWWRRLFRAIDKWAPPGQRLLLVTTEGRVIGAERSEMQIIRNFIGQADNADHPQKKKYGRVELVGPFSVRDGEDNYQLYLIRPASSSQSDFINLLFDRPLLLLIVTMLVSTPLLLWLAWSLAKPARKLKNAADEVAQGNLRQHPELEAGPQEFLAAGASFNQMVTALERMMTSQQRLLSDISHELRTPLTRLQLGTALLRRRSGESKELERIETEAQRLDSMINDLLVMSRNQQKNALVSETIKANQLWSEVLDNAAFEAEQMGKSLTVNFPPGPWPLYGNPNALESALENIVRNALRYSHTKIEVGFAVDKDGITITVDDDGPGVSPEDREQIFRPFYRTDEARDRESGGTGLGLAIVETAIQQHRGWVKAEDSPLGGLRLVIWLPLYKRS
In the case of B1, the binding entry was “binds”.

The values are drawn from PMC6075780, “Interaction of lipoprotein QseG with sensor kinase QseE in the periplasm controls the phosphorylation state of the two-component system QseE/QseF in Escherichia coli” (PLoS Genetics, 2018).
